In the supplement of paper PMC10849652:
The list shows a part of the results.

The chains behind the UniProt entries cited, without tags or fusion partners. Where a name states a change or a piece, a line headed by the entry shows the natural chain unless it says otherwise.
UniProt Q8WW38: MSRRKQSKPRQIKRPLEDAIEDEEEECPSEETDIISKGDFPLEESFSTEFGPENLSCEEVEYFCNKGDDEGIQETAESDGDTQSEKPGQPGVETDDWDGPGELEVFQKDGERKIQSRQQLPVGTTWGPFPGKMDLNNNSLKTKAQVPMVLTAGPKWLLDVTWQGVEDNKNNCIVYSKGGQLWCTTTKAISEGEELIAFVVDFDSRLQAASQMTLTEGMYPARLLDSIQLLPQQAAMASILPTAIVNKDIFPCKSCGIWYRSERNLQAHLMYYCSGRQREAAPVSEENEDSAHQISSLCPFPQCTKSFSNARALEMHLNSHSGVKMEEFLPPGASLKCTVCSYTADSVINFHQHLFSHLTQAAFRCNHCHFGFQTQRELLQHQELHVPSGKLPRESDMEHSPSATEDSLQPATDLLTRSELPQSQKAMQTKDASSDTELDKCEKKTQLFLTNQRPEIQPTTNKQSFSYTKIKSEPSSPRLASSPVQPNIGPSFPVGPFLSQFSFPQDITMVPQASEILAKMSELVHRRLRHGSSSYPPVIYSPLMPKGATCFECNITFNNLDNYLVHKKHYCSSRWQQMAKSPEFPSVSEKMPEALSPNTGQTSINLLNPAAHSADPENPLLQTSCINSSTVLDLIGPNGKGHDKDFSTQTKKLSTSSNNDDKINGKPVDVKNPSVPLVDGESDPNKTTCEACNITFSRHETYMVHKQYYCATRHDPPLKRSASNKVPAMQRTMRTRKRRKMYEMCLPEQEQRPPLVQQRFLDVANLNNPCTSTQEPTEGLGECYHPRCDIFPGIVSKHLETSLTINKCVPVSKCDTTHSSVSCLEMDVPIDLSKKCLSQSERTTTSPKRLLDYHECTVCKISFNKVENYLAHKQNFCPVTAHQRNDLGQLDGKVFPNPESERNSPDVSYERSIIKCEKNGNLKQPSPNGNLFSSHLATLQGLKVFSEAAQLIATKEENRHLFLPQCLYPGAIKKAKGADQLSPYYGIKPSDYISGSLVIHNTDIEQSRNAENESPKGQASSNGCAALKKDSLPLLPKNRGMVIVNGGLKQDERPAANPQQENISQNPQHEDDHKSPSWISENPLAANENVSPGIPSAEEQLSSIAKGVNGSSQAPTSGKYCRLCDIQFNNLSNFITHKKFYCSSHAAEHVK
UniProt P58557: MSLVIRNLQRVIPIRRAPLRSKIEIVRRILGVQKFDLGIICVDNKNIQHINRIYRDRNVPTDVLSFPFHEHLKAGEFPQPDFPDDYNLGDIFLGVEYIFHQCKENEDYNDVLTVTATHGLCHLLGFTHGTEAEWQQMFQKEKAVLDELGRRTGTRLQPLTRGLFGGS
UniProt Q9UIJ5: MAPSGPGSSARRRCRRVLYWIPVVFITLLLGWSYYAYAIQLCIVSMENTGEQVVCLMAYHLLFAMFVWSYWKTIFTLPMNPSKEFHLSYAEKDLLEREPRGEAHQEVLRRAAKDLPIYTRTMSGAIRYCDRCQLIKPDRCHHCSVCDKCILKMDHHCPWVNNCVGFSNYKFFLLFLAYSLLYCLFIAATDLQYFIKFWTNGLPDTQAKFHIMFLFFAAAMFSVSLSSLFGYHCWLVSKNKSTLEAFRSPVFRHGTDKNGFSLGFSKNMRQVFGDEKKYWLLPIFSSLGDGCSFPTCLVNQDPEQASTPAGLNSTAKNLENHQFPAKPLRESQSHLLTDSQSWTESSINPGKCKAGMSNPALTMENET
UniProt Q9ULM3: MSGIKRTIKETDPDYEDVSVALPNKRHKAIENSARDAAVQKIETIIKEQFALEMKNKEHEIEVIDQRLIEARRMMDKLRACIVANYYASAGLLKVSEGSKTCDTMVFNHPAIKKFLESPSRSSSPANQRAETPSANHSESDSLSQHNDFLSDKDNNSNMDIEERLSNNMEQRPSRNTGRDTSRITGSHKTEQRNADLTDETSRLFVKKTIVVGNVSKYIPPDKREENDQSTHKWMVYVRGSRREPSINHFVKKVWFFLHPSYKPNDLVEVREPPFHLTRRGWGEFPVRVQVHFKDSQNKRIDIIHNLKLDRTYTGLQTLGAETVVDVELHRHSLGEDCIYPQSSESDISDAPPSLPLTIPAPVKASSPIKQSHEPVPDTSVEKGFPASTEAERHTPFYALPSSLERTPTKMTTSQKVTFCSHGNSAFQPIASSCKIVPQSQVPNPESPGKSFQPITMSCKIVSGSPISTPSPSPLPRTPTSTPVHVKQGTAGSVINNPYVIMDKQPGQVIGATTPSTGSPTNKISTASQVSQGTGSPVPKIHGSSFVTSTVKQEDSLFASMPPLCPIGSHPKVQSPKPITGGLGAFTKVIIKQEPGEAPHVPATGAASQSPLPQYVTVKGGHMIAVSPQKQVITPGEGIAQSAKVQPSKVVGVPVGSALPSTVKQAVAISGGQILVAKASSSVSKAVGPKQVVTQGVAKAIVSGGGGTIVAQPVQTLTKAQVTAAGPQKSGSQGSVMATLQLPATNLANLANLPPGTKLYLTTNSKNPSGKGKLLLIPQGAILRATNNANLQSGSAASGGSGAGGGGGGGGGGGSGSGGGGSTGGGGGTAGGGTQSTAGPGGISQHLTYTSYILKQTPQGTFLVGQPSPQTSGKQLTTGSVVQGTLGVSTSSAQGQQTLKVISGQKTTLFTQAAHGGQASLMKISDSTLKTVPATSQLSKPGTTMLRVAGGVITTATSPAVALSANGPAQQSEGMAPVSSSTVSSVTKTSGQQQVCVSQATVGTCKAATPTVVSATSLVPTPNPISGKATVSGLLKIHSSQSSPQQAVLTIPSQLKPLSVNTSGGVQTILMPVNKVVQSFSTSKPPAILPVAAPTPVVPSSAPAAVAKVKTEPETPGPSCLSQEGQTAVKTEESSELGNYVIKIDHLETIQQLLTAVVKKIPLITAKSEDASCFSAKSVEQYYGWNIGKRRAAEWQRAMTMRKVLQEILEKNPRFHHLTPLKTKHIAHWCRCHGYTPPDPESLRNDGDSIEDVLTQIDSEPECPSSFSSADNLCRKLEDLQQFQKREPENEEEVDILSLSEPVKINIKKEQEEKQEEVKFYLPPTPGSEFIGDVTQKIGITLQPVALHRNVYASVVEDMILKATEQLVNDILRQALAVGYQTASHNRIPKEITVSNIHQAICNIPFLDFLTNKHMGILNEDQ
UniProt O43167: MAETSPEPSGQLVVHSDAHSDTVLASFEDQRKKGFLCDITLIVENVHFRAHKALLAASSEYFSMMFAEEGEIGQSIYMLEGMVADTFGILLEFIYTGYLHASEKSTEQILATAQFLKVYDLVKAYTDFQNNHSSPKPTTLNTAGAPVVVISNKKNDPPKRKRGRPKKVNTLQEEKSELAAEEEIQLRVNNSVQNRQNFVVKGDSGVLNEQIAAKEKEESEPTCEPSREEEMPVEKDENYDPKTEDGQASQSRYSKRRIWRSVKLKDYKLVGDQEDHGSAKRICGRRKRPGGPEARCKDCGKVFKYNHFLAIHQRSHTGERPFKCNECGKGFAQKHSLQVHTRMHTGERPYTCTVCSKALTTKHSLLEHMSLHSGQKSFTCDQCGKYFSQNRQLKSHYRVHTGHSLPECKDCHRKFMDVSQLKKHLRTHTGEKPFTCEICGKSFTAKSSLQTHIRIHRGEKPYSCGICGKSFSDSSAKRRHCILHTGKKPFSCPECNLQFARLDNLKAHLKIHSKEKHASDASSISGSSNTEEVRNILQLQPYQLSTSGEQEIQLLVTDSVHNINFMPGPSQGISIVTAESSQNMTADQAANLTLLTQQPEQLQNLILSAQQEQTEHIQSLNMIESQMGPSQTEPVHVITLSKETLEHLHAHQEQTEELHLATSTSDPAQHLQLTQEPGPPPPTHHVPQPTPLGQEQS
UniProt Q96DA0: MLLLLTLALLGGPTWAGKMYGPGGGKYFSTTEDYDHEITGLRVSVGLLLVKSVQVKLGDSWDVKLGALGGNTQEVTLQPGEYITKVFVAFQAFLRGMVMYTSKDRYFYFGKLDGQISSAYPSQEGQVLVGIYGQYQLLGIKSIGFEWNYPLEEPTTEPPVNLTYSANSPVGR
UniProt O95625: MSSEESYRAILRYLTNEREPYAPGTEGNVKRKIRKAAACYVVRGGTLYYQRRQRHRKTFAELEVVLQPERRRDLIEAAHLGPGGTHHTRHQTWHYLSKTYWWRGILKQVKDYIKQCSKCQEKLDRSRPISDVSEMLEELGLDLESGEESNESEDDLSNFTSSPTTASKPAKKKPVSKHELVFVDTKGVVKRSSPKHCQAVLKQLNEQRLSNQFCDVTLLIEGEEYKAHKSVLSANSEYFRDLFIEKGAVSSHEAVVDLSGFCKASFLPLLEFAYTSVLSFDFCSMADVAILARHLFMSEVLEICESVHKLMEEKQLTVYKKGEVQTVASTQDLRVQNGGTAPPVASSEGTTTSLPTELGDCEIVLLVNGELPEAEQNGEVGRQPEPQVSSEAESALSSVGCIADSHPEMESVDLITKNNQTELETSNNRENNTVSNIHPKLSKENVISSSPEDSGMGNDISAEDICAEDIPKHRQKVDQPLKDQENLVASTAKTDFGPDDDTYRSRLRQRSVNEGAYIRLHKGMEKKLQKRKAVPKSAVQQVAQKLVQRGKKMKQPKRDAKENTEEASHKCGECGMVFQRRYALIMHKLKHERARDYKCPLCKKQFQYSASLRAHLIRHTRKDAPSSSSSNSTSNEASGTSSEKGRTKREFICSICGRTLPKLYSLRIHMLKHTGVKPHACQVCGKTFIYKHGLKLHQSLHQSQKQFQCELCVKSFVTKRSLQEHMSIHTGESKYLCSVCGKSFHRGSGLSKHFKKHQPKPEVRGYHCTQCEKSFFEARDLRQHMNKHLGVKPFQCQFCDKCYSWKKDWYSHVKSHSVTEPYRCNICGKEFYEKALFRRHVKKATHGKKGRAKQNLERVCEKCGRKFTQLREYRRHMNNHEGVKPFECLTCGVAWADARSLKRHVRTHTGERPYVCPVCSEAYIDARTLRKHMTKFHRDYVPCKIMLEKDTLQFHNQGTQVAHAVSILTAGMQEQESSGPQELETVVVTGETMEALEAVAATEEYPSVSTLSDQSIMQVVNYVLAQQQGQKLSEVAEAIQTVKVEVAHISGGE
UniProt Q9HBF4: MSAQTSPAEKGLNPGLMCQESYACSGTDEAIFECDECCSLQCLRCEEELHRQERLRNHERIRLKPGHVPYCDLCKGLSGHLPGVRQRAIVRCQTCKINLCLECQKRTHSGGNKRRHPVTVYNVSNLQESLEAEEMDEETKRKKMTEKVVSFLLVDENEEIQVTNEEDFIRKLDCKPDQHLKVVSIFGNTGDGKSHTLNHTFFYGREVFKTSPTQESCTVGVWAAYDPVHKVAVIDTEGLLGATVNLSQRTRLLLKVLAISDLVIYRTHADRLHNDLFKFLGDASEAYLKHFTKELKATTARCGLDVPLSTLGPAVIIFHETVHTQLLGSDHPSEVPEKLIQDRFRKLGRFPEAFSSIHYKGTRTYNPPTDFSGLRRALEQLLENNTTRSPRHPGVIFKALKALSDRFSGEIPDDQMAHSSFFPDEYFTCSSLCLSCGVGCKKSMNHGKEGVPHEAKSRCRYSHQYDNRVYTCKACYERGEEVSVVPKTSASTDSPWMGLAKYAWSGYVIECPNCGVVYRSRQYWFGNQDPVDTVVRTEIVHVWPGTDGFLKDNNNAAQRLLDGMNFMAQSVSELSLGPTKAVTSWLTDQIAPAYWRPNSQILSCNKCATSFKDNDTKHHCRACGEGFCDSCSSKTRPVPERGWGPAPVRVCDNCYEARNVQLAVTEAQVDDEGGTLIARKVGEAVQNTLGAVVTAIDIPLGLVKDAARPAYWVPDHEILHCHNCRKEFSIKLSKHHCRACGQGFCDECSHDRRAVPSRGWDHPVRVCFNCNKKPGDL
UniProt Q8IY57: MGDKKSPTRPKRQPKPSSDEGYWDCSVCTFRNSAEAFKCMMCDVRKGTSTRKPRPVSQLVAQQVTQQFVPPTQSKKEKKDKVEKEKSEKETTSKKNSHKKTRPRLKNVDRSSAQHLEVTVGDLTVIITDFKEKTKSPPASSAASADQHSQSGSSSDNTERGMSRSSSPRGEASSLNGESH
UniProt O95365: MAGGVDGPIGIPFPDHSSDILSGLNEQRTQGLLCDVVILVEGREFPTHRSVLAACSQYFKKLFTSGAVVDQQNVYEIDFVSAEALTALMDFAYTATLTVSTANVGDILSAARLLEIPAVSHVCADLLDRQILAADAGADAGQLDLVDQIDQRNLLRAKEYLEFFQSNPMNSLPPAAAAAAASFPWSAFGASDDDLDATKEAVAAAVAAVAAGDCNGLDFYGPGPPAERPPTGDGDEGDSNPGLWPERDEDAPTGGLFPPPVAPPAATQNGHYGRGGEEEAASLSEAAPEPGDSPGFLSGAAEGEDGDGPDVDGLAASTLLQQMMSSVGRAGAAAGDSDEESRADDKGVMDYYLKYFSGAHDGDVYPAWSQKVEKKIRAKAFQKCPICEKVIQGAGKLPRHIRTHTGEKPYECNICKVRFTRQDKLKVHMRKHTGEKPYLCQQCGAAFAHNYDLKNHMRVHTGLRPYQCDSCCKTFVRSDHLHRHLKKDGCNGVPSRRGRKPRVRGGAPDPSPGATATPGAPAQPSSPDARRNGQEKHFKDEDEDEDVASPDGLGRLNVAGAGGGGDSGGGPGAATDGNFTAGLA

Assays:
Test in all cases: log2 fold change, soluble protein after heating vs DMSO (PISA); higher = thermal stabilisation; K562 lysate, 10 uM; active = over 0.2 and 3.5 SD of the protein, either way, in both replicates (recomputed)
[1] = compound: C#Cc1cccc(Nc2ncnc3cc(OCCOC)c(OCCOC)cc23)c1 [erlotinib]
Outline: (§1)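 Thermal stability, expressed as log-two fold change relative to solvent controls, is given from duplicates. Crude K562 extract in PBS pH 7.4 with 1 mM MgCl2, at 1 mg/mL protein, was treated with 10 μM compound for 30 min and heated in aliquots for 3 min across 48°C-58°C. After pooling, adjustment to 0.5% NP-40 at 4°C and centrifugation at 21,000xg for 90 min, supernatant protein was measured by TMTpro 16plex LC-MS/MS with channel sums equalised.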

[2] = compound: C/C(=N\NC(=O)C1=CC(=CC=C1)S(=O)(=O)N2CCOCC2)/C3=C(C=CC(=C3)Cl)O
Outline: as §1

[3] = compound: C1=CC(=CC=C1C2=NC3=C(N2)C=C(C=C3)C(=O)N)OC4=CC=C(C=C4)Cl
Outline: as §1

[4] = compound: C1=CC2=C(C=CC(=C2)/C=C\3/C(=O)NC(=NCC4=CC=CS4)S3)N=C1
Outline: as §1

[5] = compound: C1=CC2=NC=CN=C2C=C1/C=C/3\C(=O)NC(=O)S3
Outline: as §1

[6] = compound: C1=CC=C(C=C1)C2=NC(=C(N2)C3=CC=NC=C3)C4=CC(=C(C=C4)Cl)O
Outline: as §1

[7] = compound: C1=CC=C2C(=C1)C3=NNC4=CC=CC(=C43)C2=O
Outline: as §1

[8] = compound: C1CCN(C1)C(=O)NC2=CC=CC(=C2)NC3=NC=C(C(=N3)NCCC4=CN=CN4)Br
Outline: as §1

[9] = compound: C1CN(CCC1(CC2=CC=C(C=C2)Cl)N)C3=NC=NC4=C3C=CN4
Outline: as §1

[10] = compound: C1COCCN1CCN2C3=CC=CC=C3N=C2NC(=O)C4=CC(=CC=C4)[N+](=O)[O-] [IRAK-1-4 Inhibitor I]
Outline: as §1

[11] = compound: C=CC(=O)N1CCC[C@@H](n2nc(-c3ccc(Oc4ccccc4)cc3)c3c(N)ncnc32)C1 [ibrutinib]
Outline: as §1

[12] = compound: CC(=O)c1cnc2ccc(-c3cc(Cl)c(O)c(Cl)c3)nc2c1N[C@H]1CC[C@H](CN(C)C)CC1
Outline: as §1

[13] = compound: CC(C)(C)Cn1c(N)nc2ccc(-c3[nH]c(C(C)(C)C)nc3-c3ccc(F)cc3)nc21 [ralimetinib]
Outline: as §1

[14] = compound: CC(C)(O)CC(=O)NCCn1ccc2ncnc(Nc3ccc(Oc4cccc(C(F)(F)F)c4)c(Cl)c3)c21
Outline: as §1

[15] = compound: CC(C)C1=C2N=C(C=C(N2N=C1)NCC3=CC=CC=C3)NCCCCCCN
Outline: as §1

[16] = compound: CC1=C(C(CC(=O)N1)C2=CC=C(C=C2)C(F)(F)F)C(=O)NC3=C(C=C4C(=C3)C=NN4)F
Outline: as §1

[17] = compound: CC1=C(C2=C(C=C1)C(=O)C3=CC=CC=C3N2CCCN)C
Outline: as §1

[18] = compound: CC1=C(C=C(C=C1)NC(=O)C2=CC(=CC=C2)C(C)(C)C#N)NC3=CC4=C(C=C3)N=CN(C4=O)C
Outline: as §1

[19] = compound: CC1=C(C=C(C=C1)NC(=O)C2=CC(=CC=C2)N(C)C)NC(=O)C3=CC=C(C=C3)O
Outline: as §1

[20] = compound: CC1=CC=C(C=C1)SC2=C3C=C(SC3=CN=C2)C(=O)N
Outline: as §1

Measured: log2 fold change

ZC3HC1 (UniProt Q86WB0)
inactive: [1] 0.011 | [2] -0.123 | [3] -0.006 | [4] 0.005 | [5] -0.009 | [6] 0.007 | [7] 0.009 | [8] 0.011 | [9] 0.018 | [10] -0.003 | [11] -0.021 | [12] 0.013 | [13] 0.033 | [14] -0.004 | [15] -0.003 | [16] 0.012 | [17] 0.004 | [18] -0.002 | [19] 0.006 | [20] 0.013

ZFPM2 (UniProt Q8WW38)
inactive: [1] -0.064 | [2] 0.031 | [3] 0.028 | [4] -0.095 | [5] -0.258 | [7] 0.006 | [8] 0.023 | [9] -0.056 | [11] -0.128 | [15] 0.094 | [17] -0.001 | [18] 0

ZC3H12C isoform 2 (UniProt Q9C0D7)
inactive: [1] 0.097 | [3] -0.038 | [5] 0.262 | [6] 0.235 | [10] -0.065 | [11] 0.047 | [12] 0.189 | [13] -0.022 | [14] 0.007 | [15] 0.004 | [17] 0.124 | [18] -0.011 | [19] -0.073 | [20] -0.021

YBEY (UniProt P58557)
inactive: [1] 0.101 | [2] -0.164 | [3] 0.009 | [4] -0.039 | [7] -0.031 | [8] -0.011 | [9] 0.111 | [15] 0.016 | [17] -0.029

ZBTB1 (UniProt Q9Y2K1)
inactive: [1] -0.073 | [3] -0.165 | [5] 0.053 | [6] 0.033 | [8] 0.04 | [9] -0.022 | [10] 0.004 | [11] -0.061 | [12] -0.137 | [13] 0.032 | [14] -0.106 | [15] 0.182 | [19] 0.051 | [20] 0.102

ZBTB17 isoform 2 (UniProt Q13105)
inactive: [1] -0.125 | [3] -0.047 | [5] -0.023 | [11] 0.025 | [12] 0.011 | [15] -0.015 | [17] -0.063 | [18] 0.099 | [20] -0.021

ZBTB14 (UniProt O43829)
inactive: [1] -0.048 | [3] 0.051 | [5] 0.006 | [6] 0.016 | [10] 0.039 | [11] 0.004 | [12] -0.093 | [13] -0.015 | [14] -0.116 | [15] 0.045 | [16] 0.028 | [17] -0.007 | [18] 0.192 | [19] 0.008 | [20] -0.055

ZDHHC2 (UniProt Q9UIJ5)
inactive: [1] -0.046 | [3] 0.004 | [6] -0.063 | [8] 0.392 | [9] 0.081 | [10] 0.042 | [12] -0.044 | [13] 0.055 | [14] 0.011 | [15] -0.161 | [18] 0.074 | [19] 0.007 | [20] -0.005

YEATS2 (UniProt Q9ULM3)
inactive: [1] 0.064 | [2] 0.028 | [3] 0.056 | [4] 0.076 | [5] -0.061 | [6] 0.003 | [7] -0.162 | [8] -0.133 | [9] 0.056 | [10] 0.014 | [11] 0.037 | [12] 0.014 | [13] 0.109 | [14] -0.186 | [15] 0.088 | [16] -0.073 | [18] 0.02 | [19] 0.189 | [20] -0.098

YIF1A (UniProt O95070)
inactive: [1] -0.058 | [2] -0.098 | [3] -0.025 | [4] 0.038 | [5] 0.115 | [6] -0.02 | [7] -0.161 | [8] 0.01 | [9] -0.028 | [10] 0.059 | [11] 0.143 | [12] -0.075 | [13] 0.019 | [14] 0.034 | [15] -0.072 | [17] 0.025 | [18] 0.038 | [19] -0.044 | [20] 0.133

ZBTB24 (UniProt O43167)
inactive: [1] 0.037 | [3] -0.023 | [5] -0.172 | [6] -0.072 | [8] 0.088 | [9] -0.144 | [10] 0.09 | [11] -0.02 | [12] 0.044 | [13] -0.093 | [14] -0.151 | [15] -0.102 | [16] 0.078 | [17] -0.113 | [18] 0.005 | [19] 0.095 | [20] 0.089

ZG16B (UniProt Q96DA0)
inactive: [1] -0.974 | [3] -0.149 | [5] -1.46 | [6] -0.046 | [8] 0.082 | [9] -0.828 | [10] -0.162 | [11] -0.259 | [12] 0.476 | [13] -0.384 | [14] 0.605 | [15] 0.126 | [16] 2.23 | [18] 0.118 | [19] -0.071 | [20] -0.217

XRCC1 (UniProt F5H8D7)
inactive: [1] 0.132 | [2] -0.138 | [3] 0.45 | [4] -0.095 | [5] 0.008 | [7] -0.255 | [8] 0.002 | [9] 0.183 | [11] -0.118 | [15] -0.171 | [17] 0.244

ZBTB5 (UniProt O15062)
inactive: [1] 0.037 | [2] 0.076 | [3] 0.046 | [4] -0.078 | [6] -0.021 | [7] 0.238 | [8] 0.08 | [9] -0.144 | [10] -0.04 | [13] -0.005 | [14] 0.026 | [15] -0.008 | [17] 0.057 | [18] 0.026 | [19] 0.045

YAE1 (UniProt Q9NRH1)
inactive: [1] -0.041 | [2] 0.069 | [3] 0.123 | [4] 0.009 | [5] 0.025 | [6] -0.012 | [7] 0.038 | [8] -0.055 | [9] 0.034 | [10] 0.147 | [11] -0.007 | [13] -0.051 | [14] -0.133 | [15] -0.075 | [16] 0.05 | [17] -0.006 | [18] 0.047 | [19] 0.074

ZBTB11 (UniProt O95625)
inactive: [1] -0.023 | [2] -0.268 | [3] -0.083 | [4] -0.068 | [7] -0.286 | [12] -0.186 | [15] -0.014 | [16] -0.018 | [18] -0.048 | [20] -0.111

ZFYVE1 (UniProt Q9HBF4)
inactive: [1] -0.051 | [3] 0.014 | [5] -0.062 | [6] 0.081 | [10] -0.034 | [11] 0.095 | [12] 0.04 | [13] 0.049 | [14] -0.031 | [15] -0.019 | [16] 0.14 | [17] -0.039 | [18] 0.286 | [19] -0.053 | [20] -0.017

YAF2 isoform 5 (UniProt Q8IY57)
inactive: [1] 0.012 | [2] -0.28 | [3] 0.037 | [4] 0.058 | [5] 0.124 | [6] -0.033 | [7] 0.051 | [8] 0.111 | [9] 0.002 | [10] -0.147 | [11] 0.147 | [12] 0.055 | [13] -0.056 | [14] 0.035 | [15] -0.102 | [17] 0 | [18] -0.028 | [19] 0.068 | [20] -0.052

Pulled one by one from above (2):
ZBTB11 (UniProt O95625)
inactive: [1] -0.023 | [2] -0.268 | [3] -0.083 | [4] -0.068 | [7] -0.286 | [12] -0.186 | [15] -0.014 | [16] -0.018 | [18] -0.048 | [20] -0.111

YBEY (UniProt P58557)
inactive: [1] 0.101 | [2] -0.164 | [3] 0.009 | [4] -0.039 | [7] -0.031 | [8] -0.011 | [9] 0.111 | [15] 0.016 | [17] -0.029

Later entries

ZFR (UniProt Q96KR1)
inactive: [1] -0.009 | [2] -0.032 | [3] -0.001 | [4] 0.031 | [5] -0.016 | [6] -0.035 | [7] -0.053 | [8] -0.024 | [9] -0.019 | [10] 0.012 | [11] 0.038 | [12] -0.035 | [13] 0.008 | [14] -0.002 | [15] 0.014 | [16] 0.014 | [17] -0.039 | [18] -0.04 | [19] 0.013 | [20] -0.004

ZBTB40 (UniProt Q9NUA8)
inactive: [1] -0.044 | [2] -0.019 | [3] -0.014 | [4] -0.075 | [6] -0.045 | [7] -0.017 | [10] -0.048 | [12] 0.035 | [13] 0.096 | [14] -0.012 | [15] 0.057 | [16] 0.081 | [17] -0.042 | [18] 0.009 | [19] -0.007 | [20] -0.044

ZBTB7A (UniProt O95365)
inactive: [1] 0.003 | [2] 0.102 | [3] -0.044 | [4] -0.093 | [5] 0.056 | [6] 0 | [7] 0.084 | [8] -0.133 | [9] -0.011 | [10] -0.018 | [11] -0.03 | [12] -0.012 | [13] -0.024 | [14] -0.013 | [15] -0.078 | [17] -0.16 | [18] 0.093 | [19] 0.024 | [20] 0.067
